# Test results taken from paper PMC3197629.
# Test system: GST-NFATc1
# Assay: EMSA
# Conditions: eliminated by 50-fold unlabeled probe, LightShift Chemiluminescent EMSA kit per manufacturer, 0.5% BSA with desalted GST-NFAT, pH and temperature not stated, recombinant protein, protein details: GST, label: 3' biotin on both strands
Sequence,"binding result (stronger band than 197G (densitometry, P<0.01))","binding result (less intense band than 197A (densitometry, P<0.01))"
CATTTTCCTTCAGAAGAAGAGATTCTTCTA (double strand) [IL-17 197A probe],binds,–
CATTTTCCTTCAGAAGGAGAGATTCTTCTA (double strand) [IL-17 197G probe],–,binds more weakly

# The exact form of at least one protein or probe is not confirmed. The comparison behind a weaker result is the experiment's own reference, which may not be listed here.
